# This is one part of the list.
# Sequences of proteins named here, by UniProt entry; tags and fusion partners are left off. A change or cut given only in a name is not applied to a line headed by its entry.
# UniProt P11279: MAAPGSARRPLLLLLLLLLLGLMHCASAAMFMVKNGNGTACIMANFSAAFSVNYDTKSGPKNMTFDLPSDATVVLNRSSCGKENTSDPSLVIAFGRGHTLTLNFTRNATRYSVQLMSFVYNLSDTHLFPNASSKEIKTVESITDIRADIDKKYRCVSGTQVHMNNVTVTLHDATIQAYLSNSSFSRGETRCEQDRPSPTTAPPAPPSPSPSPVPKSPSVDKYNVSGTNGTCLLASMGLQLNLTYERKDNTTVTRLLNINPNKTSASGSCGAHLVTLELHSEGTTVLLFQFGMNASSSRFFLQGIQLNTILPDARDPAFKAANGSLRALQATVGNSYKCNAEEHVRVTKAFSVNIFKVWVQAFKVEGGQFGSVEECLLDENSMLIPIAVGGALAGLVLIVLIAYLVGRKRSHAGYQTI
# UniProt Q8IZA0: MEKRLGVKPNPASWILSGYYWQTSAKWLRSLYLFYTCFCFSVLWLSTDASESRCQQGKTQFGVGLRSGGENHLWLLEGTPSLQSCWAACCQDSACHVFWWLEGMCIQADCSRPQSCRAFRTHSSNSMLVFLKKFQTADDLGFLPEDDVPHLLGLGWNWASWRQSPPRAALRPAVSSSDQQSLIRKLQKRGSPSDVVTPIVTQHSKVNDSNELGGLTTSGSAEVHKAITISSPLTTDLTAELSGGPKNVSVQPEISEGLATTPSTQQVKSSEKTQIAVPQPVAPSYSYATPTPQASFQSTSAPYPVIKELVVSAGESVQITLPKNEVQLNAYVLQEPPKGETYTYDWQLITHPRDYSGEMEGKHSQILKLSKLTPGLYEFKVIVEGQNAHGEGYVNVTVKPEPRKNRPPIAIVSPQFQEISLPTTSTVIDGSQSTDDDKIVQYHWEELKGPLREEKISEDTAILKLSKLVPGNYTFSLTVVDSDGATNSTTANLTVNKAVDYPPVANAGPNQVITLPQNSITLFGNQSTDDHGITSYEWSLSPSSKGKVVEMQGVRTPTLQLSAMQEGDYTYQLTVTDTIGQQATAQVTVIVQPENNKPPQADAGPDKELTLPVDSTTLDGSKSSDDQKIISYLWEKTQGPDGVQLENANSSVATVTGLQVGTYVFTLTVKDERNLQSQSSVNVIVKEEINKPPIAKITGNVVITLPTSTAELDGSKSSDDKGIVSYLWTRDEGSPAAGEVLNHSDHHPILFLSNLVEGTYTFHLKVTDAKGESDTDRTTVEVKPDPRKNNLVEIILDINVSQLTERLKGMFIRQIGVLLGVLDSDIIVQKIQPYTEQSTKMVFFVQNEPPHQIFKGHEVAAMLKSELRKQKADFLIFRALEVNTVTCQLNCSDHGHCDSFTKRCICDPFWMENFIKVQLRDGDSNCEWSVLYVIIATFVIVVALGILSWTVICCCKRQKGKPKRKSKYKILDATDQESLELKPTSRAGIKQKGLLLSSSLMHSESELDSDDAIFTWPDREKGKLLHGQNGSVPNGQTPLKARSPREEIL
# UniProt Q07866: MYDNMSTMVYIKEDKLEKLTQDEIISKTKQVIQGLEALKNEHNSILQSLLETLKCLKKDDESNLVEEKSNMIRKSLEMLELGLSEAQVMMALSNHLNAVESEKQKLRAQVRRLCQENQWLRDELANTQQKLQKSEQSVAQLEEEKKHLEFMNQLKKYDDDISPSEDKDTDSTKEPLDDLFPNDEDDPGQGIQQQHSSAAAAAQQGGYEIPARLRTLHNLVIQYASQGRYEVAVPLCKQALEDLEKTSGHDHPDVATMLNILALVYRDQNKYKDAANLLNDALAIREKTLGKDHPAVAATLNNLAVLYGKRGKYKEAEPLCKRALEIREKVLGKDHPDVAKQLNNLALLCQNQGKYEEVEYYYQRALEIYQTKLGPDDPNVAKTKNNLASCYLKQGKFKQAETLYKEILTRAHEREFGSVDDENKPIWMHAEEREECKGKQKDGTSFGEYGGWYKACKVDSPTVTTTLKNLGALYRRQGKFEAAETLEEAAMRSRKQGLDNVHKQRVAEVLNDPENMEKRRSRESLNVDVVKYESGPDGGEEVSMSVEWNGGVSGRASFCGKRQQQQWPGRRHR
# UniProt Q99661: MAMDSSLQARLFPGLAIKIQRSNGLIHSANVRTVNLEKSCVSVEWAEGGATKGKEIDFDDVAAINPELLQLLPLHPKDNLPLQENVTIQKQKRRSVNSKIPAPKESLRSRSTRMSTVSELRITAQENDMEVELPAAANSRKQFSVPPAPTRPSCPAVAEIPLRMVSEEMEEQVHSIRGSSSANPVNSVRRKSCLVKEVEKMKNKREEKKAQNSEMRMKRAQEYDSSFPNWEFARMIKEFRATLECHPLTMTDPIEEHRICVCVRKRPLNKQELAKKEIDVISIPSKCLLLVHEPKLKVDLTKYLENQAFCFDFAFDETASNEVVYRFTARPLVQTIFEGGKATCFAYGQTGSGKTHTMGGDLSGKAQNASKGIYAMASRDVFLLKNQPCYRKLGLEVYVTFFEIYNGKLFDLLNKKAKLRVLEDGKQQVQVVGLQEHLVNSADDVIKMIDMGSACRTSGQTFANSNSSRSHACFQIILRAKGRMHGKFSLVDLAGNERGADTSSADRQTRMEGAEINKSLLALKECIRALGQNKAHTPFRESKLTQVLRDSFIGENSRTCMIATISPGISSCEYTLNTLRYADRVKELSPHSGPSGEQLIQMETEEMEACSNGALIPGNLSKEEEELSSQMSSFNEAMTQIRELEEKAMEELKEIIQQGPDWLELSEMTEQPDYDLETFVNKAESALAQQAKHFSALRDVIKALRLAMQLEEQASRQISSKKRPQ
# UniProt Q96A73: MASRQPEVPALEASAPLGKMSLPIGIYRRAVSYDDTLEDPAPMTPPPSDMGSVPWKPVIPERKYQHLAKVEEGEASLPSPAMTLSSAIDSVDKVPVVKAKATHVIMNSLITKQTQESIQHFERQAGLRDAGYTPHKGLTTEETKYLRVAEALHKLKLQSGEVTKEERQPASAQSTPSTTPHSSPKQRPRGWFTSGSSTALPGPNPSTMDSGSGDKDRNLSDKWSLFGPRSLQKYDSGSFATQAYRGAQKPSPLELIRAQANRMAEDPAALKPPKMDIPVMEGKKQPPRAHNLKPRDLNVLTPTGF
# UniProt P23276: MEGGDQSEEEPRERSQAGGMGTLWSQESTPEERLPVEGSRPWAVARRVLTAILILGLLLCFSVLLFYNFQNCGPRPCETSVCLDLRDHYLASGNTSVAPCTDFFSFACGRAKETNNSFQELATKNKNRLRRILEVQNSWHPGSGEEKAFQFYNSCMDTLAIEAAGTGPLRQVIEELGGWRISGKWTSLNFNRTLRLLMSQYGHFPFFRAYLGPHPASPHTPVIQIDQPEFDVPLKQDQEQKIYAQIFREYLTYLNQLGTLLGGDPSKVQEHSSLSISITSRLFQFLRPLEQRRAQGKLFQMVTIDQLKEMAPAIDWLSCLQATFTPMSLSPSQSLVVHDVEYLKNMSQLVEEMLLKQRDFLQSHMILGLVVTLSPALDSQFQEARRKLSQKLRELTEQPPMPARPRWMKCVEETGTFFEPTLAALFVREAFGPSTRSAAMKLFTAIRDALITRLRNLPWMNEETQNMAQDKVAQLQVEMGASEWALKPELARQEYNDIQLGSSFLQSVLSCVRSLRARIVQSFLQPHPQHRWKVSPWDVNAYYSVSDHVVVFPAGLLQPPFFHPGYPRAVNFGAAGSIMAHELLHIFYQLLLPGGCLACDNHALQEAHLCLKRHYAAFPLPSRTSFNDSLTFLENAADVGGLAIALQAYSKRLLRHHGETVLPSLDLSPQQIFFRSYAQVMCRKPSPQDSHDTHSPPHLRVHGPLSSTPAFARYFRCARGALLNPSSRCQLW
# UniProt Q8N4N3: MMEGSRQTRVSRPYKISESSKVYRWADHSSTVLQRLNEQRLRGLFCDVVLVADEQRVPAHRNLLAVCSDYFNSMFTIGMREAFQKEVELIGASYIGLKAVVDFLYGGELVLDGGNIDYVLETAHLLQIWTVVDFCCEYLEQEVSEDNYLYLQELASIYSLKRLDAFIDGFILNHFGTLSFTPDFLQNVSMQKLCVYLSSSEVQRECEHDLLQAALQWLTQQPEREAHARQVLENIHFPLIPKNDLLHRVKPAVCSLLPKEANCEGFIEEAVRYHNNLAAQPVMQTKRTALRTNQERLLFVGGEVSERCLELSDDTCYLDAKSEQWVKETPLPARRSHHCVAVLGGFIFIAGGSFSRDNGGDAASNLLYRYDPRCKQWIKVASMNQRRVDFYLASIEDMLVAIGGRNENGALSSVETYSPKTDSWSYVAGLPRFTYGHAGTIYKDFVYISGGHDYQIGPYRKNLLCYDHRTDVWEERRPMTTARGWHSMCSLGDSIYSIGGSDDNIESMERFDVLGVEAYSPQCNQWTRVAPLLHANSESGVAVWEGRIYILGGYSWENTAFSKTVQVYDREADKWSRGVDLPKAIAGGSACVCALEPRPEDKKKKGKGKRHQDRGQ
# UniProt P28838: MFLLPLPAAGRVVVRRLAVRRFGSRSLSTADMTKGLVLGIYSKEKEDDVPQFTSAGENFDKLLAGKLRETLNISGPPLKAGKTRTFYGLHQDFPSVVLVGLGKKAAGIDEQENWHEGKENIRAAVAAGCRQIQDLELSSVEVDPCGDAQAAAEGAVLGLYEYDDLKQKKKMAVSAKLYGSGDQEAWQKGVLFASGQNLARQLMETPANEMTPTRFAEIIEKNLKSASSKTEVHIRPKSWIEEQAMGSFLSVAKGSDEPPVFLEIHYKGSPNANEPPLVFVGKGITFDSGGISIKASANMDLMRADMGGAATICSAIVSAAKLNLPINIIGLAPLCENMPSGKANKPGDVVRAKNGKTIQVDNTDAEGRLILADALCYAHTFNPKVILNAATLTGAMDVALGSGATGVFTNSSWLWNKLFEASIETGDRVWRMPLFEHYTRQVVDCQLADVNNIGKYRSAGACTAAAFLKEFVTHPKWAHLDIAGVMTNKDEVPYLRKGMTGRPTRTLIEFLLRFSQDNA
# UniProt P50053: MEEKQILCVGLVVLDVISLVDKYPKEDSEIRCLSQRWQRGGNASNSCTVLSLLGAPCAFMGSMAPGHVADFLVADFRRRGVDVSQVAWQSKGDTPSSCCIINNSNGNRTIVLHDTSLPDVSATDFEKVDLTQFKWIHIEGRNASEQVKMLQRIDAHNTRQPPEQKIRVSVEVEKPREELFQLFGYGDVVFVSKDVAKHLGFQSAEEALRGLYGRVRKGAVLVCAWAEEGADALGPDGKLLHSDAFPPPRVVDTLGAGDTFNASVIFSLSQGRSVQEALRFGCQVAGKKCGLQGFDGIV
# UniProt P52732: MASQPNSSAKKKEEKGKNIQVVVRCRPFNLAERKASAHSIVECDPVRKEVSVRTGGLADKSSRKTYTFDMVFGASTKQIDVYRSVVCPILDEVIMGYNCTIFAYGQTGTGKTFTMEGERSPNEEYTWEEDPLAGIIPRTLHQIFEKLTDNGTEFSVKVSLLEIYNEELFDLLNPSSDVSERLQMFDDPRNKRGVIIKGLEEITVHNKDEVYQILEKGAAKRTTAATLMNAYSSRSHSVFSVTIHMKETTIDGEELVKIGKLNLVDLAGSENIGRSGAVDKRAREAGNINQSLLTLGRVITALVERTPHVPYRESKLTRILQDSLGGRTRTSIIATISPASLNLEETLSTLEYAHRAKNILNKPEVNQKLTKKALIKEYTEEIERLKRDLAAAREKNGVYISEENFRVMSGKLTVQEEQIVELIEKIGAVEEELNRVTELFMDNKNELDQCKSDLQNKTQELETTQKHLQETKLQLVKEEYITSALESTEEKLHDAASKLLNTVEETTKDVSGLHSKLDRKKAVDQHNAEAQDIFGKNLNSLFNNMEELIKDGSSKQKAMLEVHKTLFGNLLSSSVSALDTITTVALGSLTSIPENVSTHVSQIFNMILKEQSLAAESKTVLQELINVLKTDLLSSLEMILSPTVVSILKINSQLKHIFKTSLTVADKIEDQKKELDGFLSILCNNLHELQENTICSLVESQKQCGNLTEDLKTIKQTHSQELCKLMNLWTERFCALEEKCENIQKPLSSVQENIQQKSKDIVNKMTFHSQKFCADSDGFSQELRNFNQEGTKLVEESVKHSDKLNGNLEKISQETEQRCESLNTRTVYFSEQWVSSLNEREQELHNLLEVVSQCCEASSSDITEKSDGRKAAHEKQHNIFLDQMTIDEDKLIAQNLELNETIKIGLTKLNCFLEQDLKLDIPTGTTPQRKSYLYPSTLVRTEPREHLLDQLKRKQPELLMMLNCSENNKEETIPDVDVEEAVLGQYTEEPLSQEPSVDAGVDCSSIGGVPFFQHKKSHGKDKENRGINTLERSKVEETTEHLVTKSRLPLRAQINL
# Experiments:
# Assay in all cases: log2 fold change, soluble protein after heating vs DMSO (PISA); higher = thermal stabilisation; K562 lysate, 10 uM; active = over 0.2 and 3.5 SD of the protein, either way, in both replicates (recomputed)
# erlotinib = compound: C#Cc1cccc(Nc2ncnc3cc(OCCOC)c(OCCOC)cc23)c1 [erlotinib]
# In short: (§1)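 Quantification was by TMTpro 16plex LC-MS/MS with equalised channel sums, applied to the supernatant after 21,000xg for 90 min. Samples were crude K562 extract at 1 mg/mL protein in PBS pH 7.4 with 1 mM MgCl2, treated with 10 μM compound for 30 min, heated for 3 min across 48°C-58°C, pooled and brought to 0.5% NP-40 at 4°C. Values are log-two fold changes in thermal stability relative to solvent controls, from duplicates.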
# [1] = compound: C/C(=N\NC(=O)C1=CC(=CC=C1)S(=O)(=O)N2CCOCC2)/C3=C(C=CC(=C3)Cl)O
# In short: as §1
# [2] = compound: C1=CC(=CC=C1C2=NC3=C(N2)C=C(C=C3)C(=O)N)OC4=CC=C(C=C4)Cl
# In short: as §1
# [3] = compound: C1=CC2=C(C=CC(=C2)/C=C\3/C(=O)NC(=NCC4=CC=CS4)S3)N=C1
# In short: as §1
# [4] = compound: C1=CC2=NC=CN=C2C=C1/C=C/3\C(=O)NC(=O)S3
# In short: as §1
# [5] = compound: C1=CC=C(C=C1)C2=NC(=C(N2)C3=CC=NC=C3)C4=CC(=C(C=C4)Cl)O
# In short: as §1
# [6] = compound: C1=CC=C2C(=C1)C3=NNC4=CC=CC(=C43)C2=O
# In short: as §1
# [7] = compound: C1CCN(C1)C(=O)NC2=CC=CC(=C2)NC3=NC=C(C(=N3)NCCC4=CN=CN4)Br
# In short: as §1
# [8] = compound: C1CN(CCC1(CC2=CC=C(C=C2)Cl)N)C3=NC=NC4=C3C=CN4
# In short: as §1
# IRAK-1-4 Inhibitor I = compound: C1COCCN1CCN2C3=CC=CC=C3N=C2NC(=O)C4=CC(=CC=C4)[N+](=O)[O-] [IRAK-1-4 Inhibitor I]
# In short: as §1
# ibrutinib = compound: C=CC(=O)N1CCC[C@@H](n2nc(-c3ccc(Oc4ccccc4)cc3)c3c(N)ncnc32)C1 [ibrutinib]
# In short: as §1
# [9] = compound: CC(=O)c1cnc2ccc(-c3cc(Cl)c(O)c(Cl)c3)nc2c1N[C@H]1CC[C@H](CN(C)C)CC1
# In short: as §1
# ralimetinib = compound: CC(C)(C)Cn1c(N)nc2ccc(-c3[nH]c(C(C)(C)C)nc3-c3ccc(F)cc3)nc21 [ralimetinib]
# In short: as §1
# [10] = compound: CC(C)(O)CC(=O)NCCn1ccc2ncnc(Nc3ccc(Oc4cccc(C(F)(F)F)c4)c(Cl)c3)c21
# In short: as §1
# [11] = compound: CC(C)C1=C2N=C(C=C(N2N=C1)NCC3=CC=CC=C3)NCCCCCCN
# In short: as §1
# [12] = compound: CC1=C(C(CC(=O)N1)C2=CC=C(C=C2)C(F)(F)F)C(=O)NC3=C(C=C4C(=C3)C=NN4)F
# In short: as §1
# [13] = compound: CC1=C(C2=C(C=C1)C(=O)C3=CC=CC=C3N2CCCN)C
# In short: as §1
# [14] = compound: CC1=C(C=C(C=C1)NC(=O)C2=CC(=CC=C2)C(C)(C)C#N)NC3=CC4=C(C=C3)N=CN(C4=O)C
# In short: as §1
# [15] = compound: CC1=C(C=C(C=C1)NC(=O)C2=CC(=CC=C2)N(C)C)NC(=O)C3=CC=C(C=C3)O
# In short: as §1
# [16] = compound: CC1=CC=C(C=C1)SC2=C3C=C(SC3=CN=C2)C(=O)N
# In short: as §1
Target,log2 fold change (erlotinib),log2 fold change [1],log2 fold change [2],log2 fold change [3],log2 fold change [4],log2 fold change [5],log2 fold change [6],log2 fold change [7],log2 fold change [8],log2 fold change (IRAK-1-4 Inhibitor I),log2 fold change (ibrutinib),log2 fold change [9],log2 fold change (ralimetinib),log2 fold change [10],log2 fold change [11],log2 fold change [12],log2 fold change [13],log2 fold change [14],log2 fold change [15],log2 fold change [16]
LAMP1 (UniProt P11279),inactive: 0.024,inactive: 0.012,inactive: 0.021,inactive: -0.009,inactive: 0.012,inactive: 0.006,inactive: -0.006,inactive: -0.023,inactive: 0.038,inactive: 0.091,inactive: 0.034,inactive: -0.031,inactive: -0.003,inactive: -0.11,inactive: 0.008,inactive: 0.01,inactive: 0.003,inactive: 0.022,inactive: -0.04,inactive: -0.032
KIAA0319L (UniProt Q8IZA0),inactive: -0.042,inactive: 0.02,inactive: 0.015,inactive: 0.017,inactive: -0.044,inactive: -0.014,inactive: -0.021,inactive: -0.039,inactive: -0.011,inactive: 0.002,inactive: 0.068,inactive: -0.013,inactive: -0.001,inactive: 0.039,inactive: -0.037,inactive: 0.021,inactive: -0.003,inactive: -0.021,inactive: -0.015,inactive: 0.002
KDSR (UniProt Q06136),inactive: 0.023,inactive: 0.062,inactive: 0.025,inactive: -0.013,inactive: -0.018,inactive: -0.022,inactive: -0.041,inactive: 0.016,inactive: -0.006,inactive: 0.05,inactive: 0.005,inactive: 0.02,inactive: 0.002,inactive: -0.088,inactive: -0.041,inactive: -0.036,inactive: 0.01,inactive: 0.032,inactive: 0.031,inactive: -0.051
KLC1 isoform 6 (UniProt Q07866),inactive: -0.02,inactive: -0.023,inactive: 0.002,inactive: 0,inactive: -0.033,inactive: 0.002,inactive: -0.007,inactive: -0.027,inactive: -0.01,inactive: 0.011,inactive: -0.022,inactive: -0.012,inactive: 0.019,inactive: 0.005,inactive: 0.002,inactive: -0.01,inactive: 0.012,inactive: 0.028,inactive: -0.002,inactive: -0.017
KIF2C (UniProt Q99661),inactive: 0.019,inactive: 0.033,inactive: -0.008,inactive: -0.01,inactive: -0.008,inactive: 0.002,inactive: -0.033,inactive: 0.015,inactive: -0.006,inactive: -0.019,inactive: 0.004,inactive: 0.014,inactive: 0.048,inactive: 0.025,inactive: -0.014,inactive: -0.005,inactive: -0.004,inactive: 0.004,inactive: 0.039,inactive: 0.016
KIAA1191 (UniProt Q96A73),inactive: -0.015,inactive: 0.015,inactive: 0.047,inactive: -0.026,inactive: -0.072,inactive: 0.078,inactive: -0.081,inactive: -0.081,inactive: 0.039,inactive: -0.015,inactive: 0.016,inactive: -0.016,inactive: -0.046,inactive: -0.053,inactive: 0.002,inactive: 0.054,inactive: -0.059,inactive: 0.026,inactive: -0.028,inactive: -0.063
KPNA3 (UniProt O00505),inactive: 0,inactive: -0.011,inactive: 0.019,inactive: -0.08,inactive: -0.049,inactive: 0.043,inactive: 0.007,inactive: -0.015,inactive: 0.083,inactive: -0.004,inactive: -0.003,inactive: -0.015,inactive: 0.034,inactive: -0.062,inactive: -0.068,inactive: -0.013,inactive: -0.052,inactive: 0.039,inactive: -0.013,inactive: 0.012
KLC2 (UniProt Q9H0B6),inactive: -0.008,inactive: 0.065,inactive: 0.07,inactive: 0.008,inactive: -0.056,inactive: 0.004,inactive: -0.061,inactive: -0.048,inactive: -0.056,inactive: -0.009,inactive: 0.021,inactive: 0.01,inactive: 0.003,inactive: 0.008,inactive: -0.001,inactive: -0.045,inactive: -0.036,inactive: 0.012,inactive: 0.016,inactive: -0.012
KEL (UniProt P23276),inactive: -0.005,inactive: 0.023,inactive: -0.014,inactive: 0.021,inactive: -0.072,inactive: -0.033,inactive: -0.004,inactive: -0.015,inactive: -0.047,inactive: 0.015,inactive: 0.052,inactive: 0.026,inactive: -0.044,inactive: -0.05,inactive: 0.019,inactive: -0.044,inactive: -0.041,inactive: -0.001,inactive: -0.036,inactive: -0.013
KLHL36 (UniProt Q8N4N3),inactive: -0.047,inactive: -0.001,inactive: 0.06,inactive: -0.112,active: -0.313,inactive: -0.041,inactive: 0.013,inactive: -0.009,inactive: 0.084,inactive: 0.011,inactive: 0.002,inactive: -0.047,inactive: 0.092,inactive: -0.028,inactive: 0.053,inactive: -0.008,inactive: -0.085,inactive: -0.005,inactive: -0.098,inactive: -0.003
KIAA1522 isoform 2 (UniProt Q9P206),inactive: 0.037,inactive: -0.173,inactive: 0.057,inactive: -0.071,inactive: -0.015,inactive: 0.017,inactive: 0.033,inactive: -0.007,inactive: -0.014,inactive: -0.056,inactive: 0.013,inactive: -0.015,inactive: 0.014,inactive: 0.01,inactive: 0.005,inactive: 0.026,inactive: -0.026,inactive: 0.037,inactive: 0.026,inactive: -0.007
LAP3 (UniProt P28838),inactive: -0.034,inactive: 0.08,inactive: 0.082,inactive: -0.022,inactive: 0.013,inactive: -0.026,inactive: -0.017,inactive: 0.027,inactive: 0.008,inactive: 0.061,inactive: 0.043,inactive: -0.03,inactive: -0.05,inactive: -0.103,inactive: 0,inactive: -0.024,inactive: -0.042,inactive: 0.117,inactive: -0.009,inactive: -0.018
KPNA6 (UniProt O60684),inactive: 0.02,inactive: 0.041,inactive: -0.004,inactive: 0.009,inactive: 0.033,inactive: -0.003,inactive: 0.056,inactive: -0.008,inactive: 0.01,inactive: -0.026,inactive: -0.005,inactive: -0.014,inactive: 0.013,inactive: 0.022,inactive: 0.033,inactive: -0.003,inactive: -0.02,inactive: 0.068,inactive: 0.025,inactive: -0.002
KHK isoform 2 (UniProt P50053),inactive: -0.07,inactive: 0.024,inactive: 0.072,inactive: -0.005,inactive: 0.044,inactive: 0.069,inactive: 0.044,inactive: 0.032,inactive: -0.018,inactive: 0.084,inactive: 0.023,inactive: 0.039,inactive: 0.001,inactive: -0.032,inactive: -0.033,inactive: 0.013,inactive: -0.025,inactive: 0.185,inactive: -0.033,inactive: -0.04
KIF4B (UniProt Q2VIQ3),inactive: -0.018,inactive: -0.035,inactive: -0.017,inactive: 0.032,inactive: -0.005,inactive: 0.034,inactive: 0.004,inactive: -0.003,inactive: -0.027,inactive: -0.061,inactive: 0.027,inactive: 0.005,inactive: 0.004,inactive: -0.03,inactive: 0.013,inactive: 0.04,inactive: -0.018,inactive: 0.01,inactive: 0.002,inactive: -0.036
KIF11 (UniProt P52732),inactive: -0.014,inactive: 0.012,inactive: -0.016,inactive: -0.004,inactive: -0.004,inactive: -0.004,inactive: -0.023,inactive: -0.005,inactive: -0.013,inactive: -0.033,inactive: 0.005,inactive: -0.003,inactive: 0.029,inactive: 0.01,inactive: 0.007,inactive: 0.005,inactive: 0.01,inactive: -0.019,inactive: 0.014,inactive: 0.015

# Full records as entered above. Values in the order: log2 fold change (erlotinib) | log2 fold change [1] | log2 fold change [2] | log2 fold change [3] | log2 fold change [4] | log2 fold change [5] | log2 fold change [6] | log2 fold change [7] | log2 fold change [8] | log2 fold change (IRAK-1-4 Inhibitor I) | log2 fold change (ibrutinib) | log2 fold change [9] | log2 fold change (ralimetinib) | log2 fold change [10] | log2 fold change [11] | log2 fold change [12] | log2 fold change [13] | log2 fold change [14] | log2 fold change [15] | log2 fold change [16]
# LAMP1 (UniProt P11279) is entered as inactive: 0.024 | inactive: 0.012 | inactive: 0.021 | inactive: -0.009 | inactive: 0.012 | inactive: 0.006 | inactive: -0.006 | inactive: -0.023 | inactive: 0.038 | inactive: 0.091 | inactive: 0.034 | inactive: -0.031 | inactive: -0.003 | inactive: -0.11 | inactive: 0.008 | inactive: 0.01 | inactive: 0.003 | inactive: 0.022 | inactive: -0.04 | inactive: -0.032
# KLC2 (UniProt Q9H0B6) is entered as inactive: -0.008 | inactive: 0.065 | inactive: 0.07 | inactive: 0.008 | inactive: -0.056 | inactive: 0.004 | inactive: -0.061 | inactive: -0.048 | inactive: -0.056 | inactive: -0.009 | inactive: 0.021 | inactive: 0.01 | inactive: 0.003 | inactive: 0.008 | inactive: -0.001 | inactive: -0.045 | inactive: -0.036 | inactive: 0.012 | inactive: 0.016 | inactive: -0.012
